Measured values as given in US20230312680A1.

Tests used:
HLA-A*03:01 (human) = experiment: UV-ligand exchange, b2m ELISA; grade of exchange yield
HLA-B*44:02 (human) = experiment: as above

Row | Binder | binding (HLA-A*03:01 (human)) | binding (HLA-B*44:02 (human))
1 | QIHDHVNPK [… (SEQ ID No 265)] | binds | –
2 | RQPERTILRPR [… (SEQ ID No 272)] | binds | –
3 | FEDAQGHIW [… (SEQ ID No 418)] | – | binds
4 | AVRKPIVLK [… (SEQ ID No 21)] | binds | –
5 | KTYETNLEIKK [… (SEQ ID No 28)] | binds | –
6 | IVQEPTEEK [… (SEQ ID No 283)] | binds | –
7 | KTFTIKRFLAK [… (SEQ ID No 109)] | binds | –
8 | GAYAHTVNR [… (SEQ ID No 258)] | binds | –
9 | REPGDIFSEL [… (SEQ ID No 436)] | – | binds
10 | GTVNPTVGK [… (SEQ ID No 285)] | binds | –
11 | GMMKGGIRK [… (SEQ ID No 23)] | binds | –
12 | RSRLNPLVQR [… (SEQ ID No 262)] | binds | –
13 | SVLTSSLVK [… (SEQ ID No 102)] | binds | –
14 | AIKVIPTVFK [… (SEQ ID No 264)] | binds | –
15 | SEEETRVVF [… (SEQ ID No 416)] | – | binds
16 | KTFPASTVF [… (SEQ ID No 274)] | binds | –
17 | RRIHTGEKPYK [… (SEQ ID No 287)] | binds | –
18 | REEFVSIDHL [… (SEQ ID No 435)] | – | binds

Row | Binder | binding (HLA-A*03:01 (human)) | binding (HLA-B*44:02 (human))
19 | VLLGSLFSRK [… (SEQ ID No 85)] | binds | –
20 | TEAVVTNEL [… (SEQ ID No 437)] | – | binds
21 | AAFVPLLLK [… (SEQ ID No 106)] | binds | –
22 | RLQEWKALK [… (SEQ ID No 107)] | binds | –
23 | SEVDSPNVL [… (SEQ ID No 438)] | – | binds
24 | RAKELEATF [… (SEQ ID No 281)] | binds | –
25 | HEFGHVLGL [… (SEQ ID No 419)] | – | binds
26 | RVAELLLLH [… (SEQ ID No 89)] | binds | –
27 | SSSSATISK [… (SEQ ID No 263)] | binds | –
28 | VTADHSHVF [… (SEQ ID No 257)] | binds | –
29 | RLFSWLVNR [… (SEQ ID No 105)] | binds | –
30 | GEPATTVSL [… (SEQ ID No 421)] | – | binds
31 | KEAIREHQM [… (SEQ ID No 434)] | – | binds
32 | RLFTSPIMTK [… (SEQ ID No 100)] | binds | –
33 | KLQPAQTAAK [… (SEQ ID No 84)] | binds | –
34 | TEFPLFSAA [… (SEQ ID No 424)] | – | binds
35 | ALEVAHRLK [… (SEQ ID No 30)] | binds | –

Next, values leading:

Row | binding (HLA-A*03:01 (human)) | binding (HLA-B*44:02 (human)) | Binder
36 | binds | – | KVAGERYVYK [… (SEQ ID No 90)]
37 | – | binds | AEQDPDELNKA [… (SEQ ID No 431)]
38 | – | binds | PEKTTHSF [PEKTTHSF (SEQ ID No 426)]
39 | binds | – | VVLLGSLFSRK [… (SEQ ID No 86)]
40 | binds | – | STTFPTLTK [… (SEQ ID No 275)]
41 | binds | – | RVNAIPFTY [… (SEQ ID No 273)]
42 | binds | – | RLKGDAWVYK [… (SEQ ID No 269)]
43 | binds | – | VVHAVFALK [… (SEQ ID No 88)]
44 | binds | – | RMFADDLHNLNK [… (SEQ ID No 271)]
45 | binds | – | KSLIKSWKK [… (SEQ ID No 284)]
46 | binds | – | AVAPPTPASK [… (SEQ ID No 87)]
47 | binds | – | VLADSVTTK [… (SEQ ID No 104)]
48 | binds | – | HTFGLFYQR [… (SEQ ID No 261)]
49 | binds | – | SMYYPLQLK [… (SEQ ID No 24)]
50 | binds | – | AVFNPRFYRTY [… (SEQ ID No 270)]
51 | – | binds | REKFIASVI [… (SEQ ID No 429)]
52 | binds | – | GTYAHTVNR [… (SEQ ID No 83)]
53 | binds | – | RMASPVNVK [… (SEQ ID No 20)]
54 | binds | – | RVFTSSIKTK [… (SEQ ID No 101)]
55 | binds | – | KTLELRVAY [… (SEQ ID No 259)]
56 | – | binds | SETTFSLIF [… (SEQ ID No 422)]

Row | binding (HLA-A*03:01 (human)) | binding (HLA-B*44:02 (human)) | Binder
57 | binds | – | SLKERNPLK [… (SEQ ID No 22)]
58 | binds | – | SAAPPSYFR [… (SEQ ID No 110)]
59 | binds | – | GTNTVILEY [… (SEQ ID No 260)]
60 | binds | – | ISYSGQFLVK [… (SEQ ID No 266)]
61 | – | binds | HESSSHHDL [… (SEQ ID No 427)]
62 | – | binds | AEHFSMIRA [… (SEQ ID No 417)]
63 | binds | – | TVAPPQGVVK [… (SEQ ID No 286)]
64 | binds | – | SVSSETTKIKR [… (SEQ ID No 279)]
65 | – | binds | SDSQVRAF [SDSQVRAF (SEQ ID No 433)]
66 | binds | – | RTEEVLLTFK [… (SEQ ID No 256)]
67 | – | binds | SEVPTGTTA [… (SEQ ID No 423)]
68 | – | binds | FESHSTVSA [… (SEQ ID No 420)]
69 | – | binds | SEVPLPMAI [… (SEQ ID No 425)]
70 | binds | – | SVSGVKTTF [… (SEQ ID No 280)]
71 | binds | – | VLYGPAGLGK [… (SEQ ID No 27)]
72 | binds | – | VTDLISPRK [… (SEQ ID No 267)]
73 | binds | – | VSKTTGMEF [… (SEQ ID No 276)]
74 | binds | – | NLSSITHER [… (SEQ ID No 278)]
75 | binds | – | TTALKTTSR [… (SEQ ID No 277)]
76 | binds | – | RISEYLLEK [… (SEQ ID No 26)]

Results are given in words; binding and its absence hold for the method and conditions named. Binding can be weak; no strength is given. Ends that are not written are not given here.
